The inconclusive results got no clear call from the source; some entries with a clear call stand among them for comparison. For part of these data: Where the call is inconclusive, the potency comes from a doubtful curve fit. Calls of active or inactive are those of the source. Calls follow the shape of the dose curve; as a rule, active = well fitted curve in the direction sought with a large enough effect; inconclusive = small, poorly fitted or top-dose-only effect, or another doubt; inactive = no such curve, though single readings can be large; an effect the other way counts as inactive or inconclusive.
Key:
[1] = Quantitative High-Throughput drug screen in 47 multiple myeloma cell lines against the NCATS MIPE library collection: Delta47_JCRB cell viability assay (AID 1918925; also: nearly all actives have a fitted effect of over 45% in size); settings: Delta47 myeloma viability, CellTiter-Glo ATP, 48 h; viability (% of DMSO): at 45.8 µM (top of the series)
In short: (§1)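 qHTS of the MIPE 4.0 collection: 500 myeloma cells/well, 48 h drug exposure at 37C in 5% CO2, then CellTiter-Glo for 5 min at room temperature before luminescence reading.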

[2] = Quantitative High-Throughput drug screen in 47 multiple myeloma cell lines against the NCATS MIPE library collection: ARP1_JJKsccF8 cell viability assay (AID 1918928; also: nearly all actives have a fitted effect of over 40% in size; also: potency is read from the fitted curve at half-maximal effect)
In short: (§2)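 Here, 48 h treatment with MIPE 4.0 agents at 37 °C preceded an ATP luminescence read. Plating density was 500 cells per well.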

[3] = Quantitative High-Throughput drug screen in 47 multiple myeloma cell lines against the NCATS MIPE library collection: KMM1_JCRB cell viability assay (AID 1918960); settings: KMM1 myeloma viability, CellTiter-Glo ATP luminescence, 48 h; viability (% of DMSO): at 45.8 µM (top of the series); also: nearly all actives have a fitted effect of over 30% in size; also: potency is read from the fitted curve at half-maximal effect
In short: as §2

[4] = Quantitative High-Throughput drug screen in 47 multiple myeloma cell lines against the NCATS MIPE library collection: Karpas417_ECACC cell viability assay (AID 1918961); settings: Karpas417 myeloma viability, CellTiter-Glo ATP luminescence, 48 h; viability (% of DMSO): at 45.8 µM (top of the series); also: potency is read from the fitted curve at half-maximal effect
In short: (§3)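 Steps: seed 500 cells per well; pin-transfer MIPE 4.0 library; incubate 48 h at 37C, 5% CO2, humidified; add CellTiter-Glo, 5 min room temperature; read luminescence.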

[5] = Quantitative High-Throughput drug screen in 47 multiple myeloma cell lines against the NCATS MIPE library collection: KHM11_PLB cell viability assay (AID 1918962); settings: KHM11 myeloma cell viability, CellTiter-Glo ATP luminescence, 48 h; series mostly up to 45.8 µM; also: nearly all actives have a fitted effect of over 35% in size; also: potency is read from the fitted curve at half-maximal effect
In short: (§4)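 Luminescent ATP measurement with CellTiter-Glo gives viability, scaled between DMSO-only wells (100%) and media-only wells (0%). Cells, 500 per well, faced library compounds for 48 hours at 37C.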

[6] = Quantitative High-Throughput drug screen in 47 multiple myeloma cell lines against the NCATS MIPE library collection: JIM1_ECACC cell viability assay (AID 1918964; also: potency is read from the fitted curve at half-maximal effect); settings: JIM1 myeloma viability, CellTiter-Glo ATP luminescence, 48 h; viability (% of DMSO): at 45.8 µM (top of the series)
In short: as §1

[7] = Quantitative High-Throughput drug screen in 47 multiple myeloma cell lines against the NCATS MIPE library collection: INA6_PLB cell viability assay (AID 1918965; also: nearly all actives have a fitted effect of over 55% in size; also: potency is read from the fitted curve at half-maximal effect); settings: INA6 myeloma viability, CellTiter-Glo ATP luminescence, 48 h; viability (% of control): at 45.8 µM (top of the series)
In short: as §3

[8] = Quantitative High-Throughput drug screen in 47 multiple myeloma cell lines against the NCATS MIPE library collection: H1112_PLB cell viability assay (AID 1918967; also: nearly all actives have a fitted effect of over 30% in size; also: potency is read from the fitted curve at half-maximal effect)
In short: as §1

[9] = Quantitative High-Throughput drug screen in 47 multiple myeloma cell lines against the NCATS MIPE library collection: Karpas25_ECACC cell viability assay (AID 1918968; also: nearly all actives have a fitted effect of over 35% in size; also: potency is read from the fitted curve at half-maximal effect); settings: Karpas25 myeloma viability, CellTiter-Glo ATP, 48 h; viability (% of control): at 45.8 µM (top of the series)
In short: as §1

[10] = Quantitative High-Throughput drug screen in 47 multiple myeloma cell lines against the NCATS MIPE library collection: KMS27_JCRB cell viability assay (AID 1918970); settings: KMS27 myeloma cells, CellTiter-Glo ATP viability, 48 h; viability (% of DMSO): at 45.8 µM (top of the series); also: nearly all actives have a fitted effect of over 30% in size; also: potency is read from the fitted curve at half-maximal effect
In short: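 Viability inhibition screen, 48 h compound exposure, luminescent ATP read-out.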

[11] = Quantitative High-Throughput drug screen in 47 multiple myeloma cell lines against the NCATS MIPE library collection: ARD_JJKsccE7 cell viability assay (AID 1918929; also: potency is read from the fitted curve at half-maximal effect); settings: ARD myeloma cell line viability, CellTiter-Glo, 48 h; viability: at 45.8 µM (top of the series)
In short: as §1

[12] = Quantitative High-Throughput drug screen in 47 multiple myeloma cell lines against the NCATS MIPE library collection: JJN3_DSMZ cell viability assay (AID 1918966; also: nearly all actives have a fitted effect of over 50% in size; also: potency is read from the fitted curve at half-maximal effect); settings: JJN3 myeloma cells viability, CellTiter-Glo ATP, 48 h; viability, % of DMSO: at 45.8 µM (top of the series)
In short: as §1

[13] = Quantitative High-Throughput drug screen in 47 multiple myeloma cell lines against the NCATS MIPE library collection: Karpas620_DSMZ cell viability assay (AID 1918959); settings: Karpas620 myeloma viability, CellTiter-Glo ATP luminescence, 48 h; viability (% of DMSO): at 45.8 µM (top of the series); also: nearly all actives have a fitted effect of over 30% in size; also: potency is read from the fitted curve at half-maximal effect
In short: as §4

[14] = Quantitative High-Throughput drug screen in 47 multiple myeloma cell lines against the NCATS MIPE library collection: EJM_DSMZ cell viability assay (AID 1918926)
In short: as §1

[15] = Quantitative High-Throughput drug screen in 47 multiple myeloma cell lines against the NCATS MIPE library collection: JIM3_ECACC cell viability assay (AID 1918963; also: nearly all actives have a fitted effect of over 35% in size; also: potency is read from the fitted curve at half-maximal effect)
In short: as §4

[16] = Quantitative High-Throughput drug screen in 47 multiple myeloma cell lines against the NCATS MIPE library collection: AMO1_DSMZ cell viability assay (AID 1918927; also: nearly all actives have a fitted effect of over 30% in size; also: potency is read from the fitted curve at half-maximal effect)
In short: as §1

Measured: Potency

COc1cc(OC)c(C(=O)CCCN2CCCC2)c(OC)c1
inactive: [1] | [2] | [4] | [5] | [8] | [9]
inconclusive: [3] 0.0469 µM [rising, full curve, poor fit] | [6] 3.32 µM [cytotoxic, full curve, poor fit] | [7] 1.05 µM [cytotoxic, full curve, poor fit] | [10] 0.0017 µM [rising, full curve, poor fit]

CC1(C)CC(O)CC(C)(C)N1[O]
inconclusive: [11] 0.001 µM [cytotoxic] | [5] 29.6 µM [rising, partial curve, poor fit] | [12] 0.001 µM | [8] 0.0148 µM [rising, full curve, poor fit]
inactive: [1] | [2] | [3] | [6] | [7] | [10]

Cc1nc(-c2ccc(OCC(C)C)c(C#N)c2)sc1C(=O)O
inactive: [1] | [2] | [3] | [6] | [8] | [10]
inconclusive: [13] 0.0023 µM [cytotoxic, full curve, poor fit] | [4] 0.0166 µM [rising, full curve, poor fit] | [5] 3.72 µM [cytotoxic, full curve, poor fit] | [7] 14.8 µM [cytotoxic, partial curve, poor fit] | [12] 20.9 µM [cytotoxic, partial curve, poor fit] | [9] 23.5 µM [cytotoxic, single point]

CCNC(=O)CCCC=CC[C@@H]1[C@H](C=CC(O)CCc2ccccc2)[C@@H](O)C[C@@H]1O (stereo partly specified)
active: [2] 10.5 µM
inactive: [4] | [6] | [7] | [9] | [10]
inconclusive: [14] 9.35 µM [cytotoxic, partial curve, poor fit] | [11] 18.7 µM [rising, single point] | [5] 23.5 µM [cytotoxic, single point] | [12] 26.4 µM [cytotoxic, partial curve, poor fit]

O=c1c(O)c(-c2ccc(O)c(O)c2)oc2cc(O)ccc12
inconclusive: [11] 11.8 µM [cytotoxic, single point] | [13] 8.33 µM [cytotoxic, single point] | [4] 3.32 µM [cytotoxic, partial curve, poor fit] | [6] 6.62 µM [cytotoxic, partial curve, poor fit] | [10] 8.33 µM [cytotoxic, single point]
active: [14] 20.9 µM

CC(C)(O)[C@H]1CC[C@@](C)([C@H]2[C@@H](O)C[C@@]3(C)[C@@H]4C[C@H](O[C@@H]5O[C@H](CO)[C@@H](O)[C@H](O)[C@@H]5O)[C@H]5C(C)(C)[C@@H](O[C@@H]6OC[C@@H](O)[C@H](O)[C@@H]6O)CC[C@@]56C[C@@]46CC[C@]23C)O1
active: [12] 0.418 µM
inactive: [1] | [2] | [5] | [6] | [7]
inconclusive: [3] 0.0935 µM [rising, full curve, poor fit] | [4] 13.2 µM [rising, partial curve, poor fit] | [10] 0.0118 µM [cytotoxic, full curve, poor fit]

CCCCc1oc2ccccc2c1C(=O)c1cc(I)c(OCCN(CC)CC)c(I)c1
active: [4] 13.2 µM
inconclusive: [14] 20.9 µM [cytotoxic, partial curve] | [2] 26.4 µM [cytotoxic, single point] | [5] 26.4 µM [cytotoxic, single point] | [8] 18.7 µM [cytotoxic, partial curve]

O=C1CCCC2=C1C(c1[nH]ncc1Cl)N=C(Nc1nc3ccccc3o1)N2 (stereo unspecified)
active: [5] 4.18 µM | [7] 5.9 µM | [9] 0.662 µM
inactive: [4]
inconclusive: [14] 29.6 µM [cytotoxic, single point] | [2] 13.2 µM [cytotoxic, partial curve, poor fit] | [11] 11.8 µM [cytotoxic, single point] | [3] 5.9 µM [cytotoxic, partial curve, poor fit] | [15] 3.32 µM [cytotoxic, partial curve, poor fit] | [6] 33.2 µM [rising, single point] | [10] 11.8 µM [cytotoxic, single point]

COC(=O)C1=C(C)NC(C)=C(C(=O)OCCN2CCN(C(c3ccccc3)c3ccccc3)CC2)C1c1cccc([N+](=O)[O-])c1 (stereo unspecified)
inconclusive: [2] 2.35 µM [cytotoxic, partial curve, poor fit] | [11] 0.0037 µM [rising, full curve, poor fit] | [4] 33.2 µM [rising, single point] | [12] 0.0264 µM [rising, full curve, poor fit]
inactive: [16] | [13] | [3] | [5] | [8]

COC(=O)Nc1nc2ccc(Sc3ccccc3)cc2[nH]1
active: [3] 1.18 µM | [6] 0.833 µM
inconclusive: [13] 0.526 µM [cytotoxic, full curve] | [5] 0.833 µM [cytotoxic, full curve] | [8] 1.05 µM [cytotoxic, full curve] | [9] 0.833 µM [cytotoxic, full curve, poor fit] | [10] 0.59 µM [cytotoxic, full curve]

CN(c1ncccc1CNc1nc(Nc2ccc3c(c2)CC(=O)N3)ncc1C(F)(F)F)S(C)(=O)=O
active: [11] 2.64 µM | [4] 1.87 µM | [6] 3.32 µM | [7] 2.64 µM | [12] 2.64 µM

NS(=O)(=O)c1cccc2c1C(=O)c1cccc(O)c1C2=O
active: [4] 0.148 µM | [6] 0.209 µM | [12] 0.264 µM | [9] 0.132 µM | [10] 0.209 µM

COc1cc2c(Oc3ccc(NC(=O)C4(C(=O)Nc5ccc(F)cc5)CC4)cc3F)ccnc2cc1OCCCN1CCOCC1
inconclusive: [2] 8.33 µM [cytotoxic, partial curve]
active: [11] 2.64 µM | [13] 6.62 µM | [3] 2.96 µM | [4] 2.35 µM | [6] 1.66 µM | [12] 16.6 µM | [8] 16.6 µM

Cc1ccc(F)c(NC(=O)Nc2ccc(-c3cccc4[nH]nc(N)c34)cc2)c1
inconclusive: [14] 29.6 µM [cytotoxic, single point] | [4] 1.87 µM [cytotoxic, partial curve, poor fit]
active: [5] 8.33 µM | [6] 1.87 µM | [8] 10.5 µM

CO[C@H]1C=CC=C(C)C(=O)NC2=CC(=O)C(NCCN(C)C)=C(C[C@@H](C)C[C@H](OC)[C@@H](O)[C@@H](C)C=C(C)[C@@H]1OC(N)=O)C2=O
active: [11] 0.001 µM | [3] 0.0526 µM | [5] 0.0372 µM | [12] 0.0296 µM

Ordered by count of non-hydrogen atoms (high to low): some entries from above.
CCNC(=O)CCCC=CC[C@@H]1[C@H](C=CC(O)CCc2ccccc2)[C@@H](O)C[C@@H]1O (stereo partly specified)
active: [2] 10.5 µM
inactive: [4] | [6] | [7] | [9] | [10]
inconclusive: [14] 9.35 µM [cytotoxic, partial curve, poor fit] | [11] 18.7 µM [rising, single point] | [5] 23.5 µM [cytotoxic, single point] | [12] 26.4 µM [cytotoxic, partial curve, poor fit]

O=C1CCCC2=C1C(c1[nH]ncc1Cl)N=C(Nc1nc3ccccc3o1)N2 (stereo unspecified)
active: [5] 4.18 µM | [7] 5.9 µM | [9] 0.662 µM
inactive: [4]
inconclusive: [14] 29.6 µM [cytotoxic, single point] | [2] 13.2 µM [cytotoxic, partial curve, poor fit] | [11] 11.8 µM [cytotoxic, single point] | [3] 5.9 µM [cytotoxic, partial curve, poor fit] | [15] 3.32 µM [cytotoxic, partial curve, poor fit] | [6] 33.2 µM [rising, single point] | [10] 11.8 µM [cytotoxic, single point]

NS(=O)(=O)c1cccc2c1C(=O)c1cccc(O)c1C2=O
active: [4] 0.148 µM | [6] 0.209 µM | [12] 0.264 µM | [9] 0.132 µM | [10] 0.209 µM

(continued)

O=C(N[C@@H](c1ccccc1)[C@@H]1CCCCN1)c1cccc(C(F)(F)F)c1Cl
inconclusive: [16] 16.6 µM [cytotoxic, partial curve] | [2] 23.5 µM [cytotoxic, single point] | [11] 13.2 µM [cytotoxic, partial curve, poor fit] | [4] 0.0021 µM [cytotoxic, full curve, poor fit] | [5] 0.0526 µM [rising, full curve, poor fit] | [10] 0.0047 µM [cytotoxic, full curve, poor fit]
inactive: [6] | [7] | [12] | [9]

COc1cc2nc(N3CCCN(C)CC3)nc(NC3CCN(Cc4ccccc4)CC3)c2cc1OC
active: [14] 9.35 µM | [11] 8.33 µM | [4] 2.35 µM | [7] 2.35 µM | [9] 5.26 µM | [10] 4.18 µM

NS(=O)(=O)c1cc(C(=O)O)c(NCc2ccco2)cc1Cl
inactive: [2] | [13] | [3] | [15]
inconclusive: [16] 0.0053 µM [cytotoxic, full curve, poor fit] | [11] 0.0332 µM [cytotoxic, full curve, poor fit] | [5] 0.0264 µM [rising, full curve, poor fit] | [7] 0.0332 µM [rising, full curve, poor fit] | [12] 37.2 µM [cytotoxic, single point]

Source: PubChem BioAssay (NCATS)
